Source: paper PMC6336319, “EBNA3C facilitates RASSF1A downregulation through ubiquitin-mediated degradation and promoter hypermethylation to drive B-cell proliferation” (PLoS Pathogens, 2019)
No constants are given. Whether binding was seen depends on the method and setting. Binding seen in cells or lysates may run through a third protein. Some entries that bind do so weakly or less than the wild type. For some assays here: Sequences can lack the tags named with a protein.

The chains behind the UniProt entries cited, without tags or fusion partners. Where a name states a change or a piece, a line headed by the entry shows the natural chain unless it says otherwise. A line that says so, or that is headed by a name, gives the form on record, which may keep a tag or linker. Residues count along the entry.
UniProt P03204: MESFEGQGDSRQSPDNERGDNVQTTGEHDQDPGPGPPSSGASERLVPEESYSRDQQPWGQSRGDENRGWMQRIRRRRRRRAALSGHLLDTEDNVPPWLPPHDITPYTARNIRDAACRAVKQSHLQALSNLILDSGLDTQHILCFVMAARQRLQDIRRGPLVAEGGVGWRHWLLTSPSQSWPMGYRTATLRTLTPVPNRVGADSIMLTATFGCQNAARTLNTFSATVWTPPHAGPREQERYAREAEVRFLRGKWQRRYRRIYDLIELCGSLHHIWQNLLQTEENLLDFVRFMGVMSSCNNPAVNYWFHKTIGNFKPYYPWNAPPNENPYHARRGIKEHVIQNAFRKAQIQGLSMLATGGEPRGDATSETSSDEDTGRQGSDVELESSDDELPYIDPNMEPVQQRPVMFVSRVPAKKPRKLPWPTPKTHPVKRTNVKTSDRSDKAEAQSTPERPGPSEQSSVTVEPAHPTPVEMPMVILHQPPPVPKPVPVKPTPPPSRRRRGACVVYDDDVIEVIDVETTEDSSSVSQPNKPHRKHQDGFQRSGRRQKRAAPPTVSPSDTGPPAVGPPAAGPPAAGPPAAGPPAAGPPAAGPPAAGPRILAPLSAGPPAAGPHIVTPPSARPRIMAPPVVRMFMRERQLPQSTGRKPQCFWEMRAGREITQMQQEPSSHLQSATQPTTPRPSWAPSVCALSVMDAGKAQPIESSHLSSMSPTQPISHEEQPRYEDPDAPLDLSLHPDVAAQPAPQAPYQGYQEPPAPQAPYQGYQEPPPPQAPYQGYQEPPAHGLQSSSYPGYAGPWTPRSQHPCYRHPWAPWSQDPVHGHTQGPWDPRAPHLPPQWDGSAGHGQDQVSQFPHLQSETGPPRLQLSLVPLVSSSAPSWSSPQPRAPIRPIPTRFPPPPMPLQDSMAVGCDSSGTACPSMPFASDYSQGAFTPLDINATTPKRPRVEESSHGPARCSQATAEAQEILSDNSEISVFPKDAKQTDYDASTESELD
Flag-tagged EBNA3C 1-365: residues 1-365 of P03204

Assays:
[1] = molecular target: T1, Myc-tagged full-length RASSF1A (Ras association domain family isoform 1A) (human) (UniProt Q9NS23); assay: co-IP; Saos-2 cells co-transfected, lysed 48 h later in RIPA buffer (1% NP-40, 10 mM Tris pH 8.0, 2 mM EDTA, 150 mM NaCl); immunoprecipitation with 1 ug anti-Myc antibody, overnight at 4 °C; western blot with anti-Flag and anti-Myc
T1 sequence: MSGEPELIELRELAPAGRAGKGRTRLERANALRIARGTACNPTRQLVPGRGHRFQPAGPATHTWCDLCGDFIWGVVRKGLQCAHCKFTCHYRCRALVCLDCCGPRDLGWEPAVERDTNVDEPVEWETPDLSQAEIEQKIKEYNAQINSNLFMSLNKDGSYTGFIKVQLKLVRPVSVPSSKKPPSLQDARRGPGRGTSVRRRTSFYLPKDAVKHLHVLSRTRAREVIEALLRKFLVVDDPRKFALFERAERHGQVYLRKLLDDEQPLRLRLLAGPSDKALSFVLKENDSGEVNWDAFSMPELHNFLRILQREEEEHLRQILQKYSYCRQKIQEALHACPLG

[2] = molecular target: Flag-tagged EBNA3C 1-365 (Epstein-Barr virus) (UniProt P03204); assay: co-IP; Saos-2 cells co-transfected, lysed 48 h later in RIPA buffer (1% NP-40, 10 mM Tris pH 8.0, 2 mM EDTA, 150 mM NaCl); immunoprecipitation with 1 ug anti-Flag antibody, overnight at 4 °C; western blot with anti-Flag and anti-Myc
[3] = molecular target: Flag-tagged full-length EBNA3C (EBV-encoded nuclear antigen 3C) (Epstein-Barr virus) (UniProt P03204); assay: as above
[4] = molecular target: EBNA3C stably expressed in BJAB7 and BJAB10 cells (Epstein-Barr virus) (UniProt P03204); assay: co-IP; 60 million B cells (BJAB, BJAB7, BJAB10; LCL1, LCL2) lysed in RIPA buffer; immunoprecipitation with 1 ug anti-EBNA3C antibody, overnight at 4 °C; western blot for the endogenous partner
[5] = molecular target: EBNA3C of EBV-transformed lymphoblastoid cell lines LCL1 and LCL2 (Epstein-Barr virus) (UniProt P03204); assay: as above

In the case of “Flag-tagged full-length EBNA3C (EBV-encoded nuclear antigen 3C) (from UniProt P03204 1-992)”, the binding [1] is reported as “binds”.

B1: Myc-tagged full-length RASSF1A (Ras association domain family isoform 1A) (natural protein, human, UniProt Q9NS23-2 1-340, looked up)
chain: T1 sequence
notes: RASSF1A (Ras association domain family isoform 1A), full length, amplified from total RNA by RT-PCR and cloned into pA3M; also called Myc-RASSF1A; pA3M-RASSF1A; source: Saos-2, transfected, in lysate
B1 was tested, and the binding [2] was “binds” and the binding [3] was “binds”.

B2: endogenous RASSF1A (protein, UniProt Q9NS23-2 1-340)
chain: T1 sequence
For B2, the binding [4] was “binds” and the binding [5] was “binds”.
